Among the data in PMC4746772 are binding values, retold here.

Amino acid sequences for entries named in this document (tags omitted). A change or cut given only in a name is not applied to a line headed by its entry. Residues count along the entry.
UniProt P14190: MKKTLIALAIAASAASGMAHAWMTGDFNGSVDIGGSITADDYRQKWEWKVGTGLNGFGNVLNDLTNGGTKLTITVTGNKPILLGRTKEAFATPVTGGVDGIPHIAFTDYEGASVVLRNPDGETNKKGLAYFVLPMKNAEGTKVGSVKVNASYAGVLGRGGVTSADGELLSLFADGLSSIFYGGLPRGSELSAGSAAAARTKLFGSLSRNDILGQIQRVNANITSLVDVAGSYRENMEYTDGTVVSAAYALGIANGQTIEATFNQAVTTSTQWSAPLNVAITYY
GST-FaeG F4ac (pGEX-6p-1-FaeG F4ac) (Escherichia coli (F4ac ETEC)): residues 22-283 of P14190
UniProt P14191: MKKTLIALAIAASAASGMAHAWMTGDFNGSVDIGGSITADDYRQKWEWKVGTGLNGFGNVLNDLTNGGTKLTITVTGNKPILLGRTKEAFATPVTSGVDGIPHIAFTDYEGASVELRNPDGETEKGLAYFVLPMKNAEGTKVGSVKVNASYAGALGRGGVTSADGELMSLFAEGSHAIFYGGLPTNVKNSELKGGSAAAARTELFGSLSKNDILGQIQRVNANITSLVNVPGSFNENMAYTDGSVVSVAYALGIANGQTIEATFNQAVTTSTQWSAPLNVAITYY
UniProt P02970: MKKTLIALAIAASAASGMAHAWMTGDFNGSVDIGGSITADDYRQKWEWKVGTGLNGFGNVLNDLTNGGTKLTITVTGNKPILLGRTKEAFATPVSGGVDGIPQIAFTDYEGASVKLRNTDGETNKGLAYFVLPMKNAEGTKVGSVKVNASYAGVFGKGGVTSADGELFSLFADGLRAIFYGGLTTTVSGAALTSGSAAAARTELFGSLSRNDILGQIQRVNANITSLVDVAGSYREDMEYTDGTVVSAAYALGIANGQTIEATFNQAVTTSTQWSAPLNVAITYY

In experiment [1] the target is T1, porcine aminopeptidase N in pGBKT7 (pGBKT7-APN) (pig (porcine)) (UniProt P15145).
T1 sequence: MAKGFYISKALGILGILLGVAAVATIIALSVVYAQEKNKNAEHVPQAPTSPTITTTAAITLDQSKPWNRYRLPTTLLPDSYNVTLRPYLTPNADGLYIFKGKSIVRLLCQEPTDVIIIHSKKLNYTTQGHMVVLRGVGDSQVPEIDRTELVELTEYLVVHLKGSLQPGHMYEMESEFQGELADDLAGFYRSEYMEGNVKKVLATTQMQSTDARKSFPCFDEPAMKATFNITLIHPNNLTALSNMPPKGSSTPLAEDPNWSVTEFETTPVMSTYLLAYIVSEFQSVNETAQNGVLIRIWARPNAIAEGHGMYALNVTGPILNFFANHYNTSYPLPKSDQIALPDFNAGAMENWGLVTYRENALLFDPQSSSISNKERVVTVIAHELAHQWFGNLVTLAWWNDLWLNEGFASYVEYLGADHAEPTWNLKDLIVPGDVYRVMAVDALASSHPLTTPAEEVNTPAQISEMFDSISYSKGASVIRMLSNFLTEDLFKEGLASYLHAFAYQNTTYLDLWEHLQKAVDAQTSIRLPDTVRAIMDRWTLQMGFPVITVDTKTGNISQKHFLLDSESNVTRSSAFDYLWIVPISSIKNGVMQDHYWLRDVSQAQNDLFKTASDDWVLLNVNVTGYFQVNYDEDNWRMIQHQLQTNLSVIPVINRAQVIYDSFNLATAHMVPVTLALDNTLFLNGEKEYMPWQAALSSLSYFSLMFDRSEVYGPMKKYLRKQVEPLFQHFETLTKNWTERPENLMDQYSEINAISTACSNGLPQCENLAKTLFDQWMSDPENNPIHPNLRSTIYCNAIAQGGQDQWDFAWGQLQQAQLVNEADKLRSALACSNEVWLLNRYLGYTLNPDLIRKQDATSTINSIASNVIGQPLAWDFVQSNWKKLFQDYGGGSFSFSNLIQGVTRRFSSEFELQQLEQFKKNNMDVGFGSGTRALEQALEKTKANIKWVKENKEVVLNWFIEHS
Kind of experiment: two-hybrid; pGADT7-FaeG and pGBKT7-APN in S. cerevisiae AH109 (Clontech); selection on SD/-Ade/-His/-Leu/-Trp, β-galactosidase activity.

Experiment [2] concerns the target GST-FaeG F4ac (pGEX-6p-1-FaeG F4ac) (Escherichia coli (F4ac ETEC)) (UniProt P14190). In words: pull-down; Pierce GST Protein Interaction Pull-Down Kit, GST-FaeG fusion as bait; SDS-PAGE and Western blot with anti-F4 monoclonal and anti-APN polyclonal antibodies; in some cases the PVDF membranes were treated with 0-20 mM NaIO4 before blotting; both purified. For orientation: In western blotting, separated proteins are transferred to a membrane and probed.

These are yes or no findings as the source states them, for the method shown. Some binding calls cover weakened binding; strength is not graded here.

Consider “F4ad FaeG in pGADT7 (pGADT7-FaeG) (from UniProt P14191 1-285)”, for which the binding entry in experiment [1] is “binds”.

As for “F4ac FaeG in pGADT7 (pGADT7-FaeG) (from UniProt P14190 1-283)”, in experiment [1], the binding result is on record as “binds”.

Turning to “F4ab FaeG in pGADT7 (pGADT7-FaeG) (from UniProt P02970 1-285)”, in experiment [1], the binding result is given as “binds”.

B1: porcine aminopeptidase N, recombinant protein (receptor, UniProt P15145 1-963)
chain: T1 sequence
Regarding B1, the binding entry in experiment [2] is given as “binds”.
